Laboratory results published in publication PMC8473878.
These are yes or no findings as the source states them, for the method shown. Binding seen in cells or lysates may run through a third protein. A yes stands for co-enrichment or nearness to the bait. Other partners may have been found. Tags and fused reporters may be left off the sequences shown.

Sequences of proteins named here, by UniProt entry; tags and fusion partners are left off. Residues count along the entry.
UniProt P10909, residues 23-449: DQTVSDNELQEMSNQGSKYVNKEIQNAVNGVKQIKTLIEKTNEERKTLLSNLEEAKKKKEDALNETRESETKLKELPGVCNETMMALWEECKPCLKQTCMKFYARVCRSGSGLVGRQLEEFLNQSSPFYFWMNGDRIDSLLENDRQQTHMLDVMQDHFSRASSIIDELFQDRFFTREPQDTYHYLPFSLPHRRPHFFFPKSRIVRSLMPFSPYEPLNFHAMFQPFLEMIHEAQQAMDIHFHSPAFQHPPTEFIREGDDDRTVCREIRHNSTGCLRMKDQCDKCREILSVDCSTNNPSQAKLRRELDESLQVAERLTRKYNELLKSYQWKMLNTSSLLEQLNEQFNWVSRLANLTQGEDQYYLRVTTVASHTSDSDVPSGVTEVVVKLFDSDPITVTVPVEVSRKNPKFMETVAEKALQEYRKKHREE
UniProt Q14240: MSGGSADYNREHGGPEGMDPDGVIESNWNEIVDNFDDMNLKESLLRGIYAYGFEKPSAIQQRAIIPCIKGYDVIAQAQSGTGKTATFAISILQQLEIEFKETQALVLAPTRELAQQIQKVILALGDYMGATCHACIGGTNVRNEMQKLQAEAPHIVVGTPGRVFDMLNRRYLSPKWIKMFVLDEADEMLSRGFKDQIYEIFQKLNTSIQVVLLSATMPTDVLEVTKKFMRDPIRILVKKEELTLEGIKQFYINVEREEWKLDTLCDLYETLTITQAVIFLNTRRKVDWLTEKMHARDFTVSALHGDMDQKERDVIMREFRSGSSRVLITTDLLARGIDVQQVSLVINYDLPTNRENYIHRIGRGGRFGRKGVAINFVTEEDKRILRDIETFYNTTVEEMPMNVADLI
UniProt P30530, residues 26-894: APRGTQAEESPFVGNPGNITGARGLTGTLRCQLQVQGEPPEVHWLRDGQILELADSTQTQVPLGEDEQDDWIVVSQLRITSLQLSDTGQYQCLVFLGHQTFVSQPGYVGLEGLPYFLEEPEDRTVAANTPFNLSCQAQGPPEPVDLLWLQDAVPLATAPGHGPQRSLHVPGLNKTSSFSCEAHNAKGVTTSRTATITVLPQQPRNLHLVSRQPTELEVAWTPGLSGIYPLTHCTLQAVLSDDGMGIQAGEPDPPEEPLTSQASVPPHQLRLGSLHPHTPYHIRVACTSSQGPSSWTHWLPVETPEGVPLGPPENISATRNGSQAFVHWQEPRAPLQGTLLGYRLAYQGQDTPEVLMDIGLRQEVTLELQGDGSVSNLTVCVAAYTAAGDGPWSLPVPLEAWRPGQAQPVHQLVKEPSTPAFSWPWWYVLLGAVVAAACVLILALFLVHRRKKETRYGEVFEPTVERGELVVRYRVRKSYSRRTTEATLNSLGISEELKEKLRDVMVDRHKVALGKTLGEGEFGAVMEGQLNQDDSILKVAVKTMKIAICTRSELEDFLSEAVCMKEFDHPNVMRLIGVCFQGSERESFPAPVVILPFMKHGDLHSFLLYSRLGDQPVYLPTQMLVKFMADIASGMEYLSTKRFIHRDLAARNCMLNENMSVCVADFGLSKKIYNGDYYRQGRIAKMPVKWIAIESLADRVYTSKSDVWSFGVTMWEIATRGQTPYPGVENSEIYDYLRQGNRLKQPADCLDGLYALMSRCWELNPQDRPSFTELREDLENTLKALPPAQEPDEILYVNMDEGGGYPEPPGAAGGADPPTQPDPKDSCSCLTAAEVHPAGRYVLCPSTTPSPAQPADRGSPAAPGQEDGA

molecular target: T1, 3×FLAG-fused B4GALNT2 (β1,4-N-acetylgalactosaminyltransferase 2) (UniProt Q8NHY0); test: affinity purification with mass spectrometry; Anti-Flag Co-IP from cell proteins of MDA-MB-231 stably overexpressing 3×FLAG-B4GALNT2 (OE) against control stable cells (NC); gel bands cut, LC-MS/MS (Q Exactive, Mascot, FDR<0.01)
T1 sequence: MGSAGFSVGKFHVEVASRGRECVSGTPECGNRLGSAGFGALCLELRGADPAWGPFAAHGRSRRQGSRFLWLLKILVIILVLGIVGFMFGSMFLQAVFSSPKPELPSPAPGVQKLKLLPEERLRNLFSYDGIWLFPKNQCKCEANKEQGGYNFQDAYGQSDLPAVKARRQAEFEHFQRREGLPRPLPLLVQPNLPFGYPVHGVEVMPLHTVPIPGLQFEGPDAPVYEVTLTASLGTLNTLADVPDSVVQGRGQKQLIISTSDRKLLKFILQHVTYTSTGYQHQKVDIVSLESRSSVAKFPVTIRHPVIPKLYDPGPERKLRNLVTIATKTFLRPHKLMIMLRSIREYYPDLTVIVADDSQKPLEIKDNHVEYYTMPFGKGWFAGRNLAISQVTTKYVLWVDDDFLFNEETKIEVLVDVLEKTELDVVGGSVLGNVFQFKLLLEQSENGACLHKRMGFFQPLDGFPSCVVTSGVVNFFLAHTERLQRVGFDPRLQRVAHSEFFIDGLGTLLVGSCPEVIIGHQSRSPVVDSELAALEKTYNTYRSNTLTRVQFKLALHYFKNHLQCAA

binding, binds:
CLU (from UniProt P10909 23-449)
EIF4A2 (from UniProt Q14240 1-407)
AXL (from UniProt P30530 26-894) (receptor)
